Assay [1] deals with T1, E-subunit of the V/A-ATPase from Thermus thermophilus (Thermus thermophilus) (UniProt P74901).
T1 sequence: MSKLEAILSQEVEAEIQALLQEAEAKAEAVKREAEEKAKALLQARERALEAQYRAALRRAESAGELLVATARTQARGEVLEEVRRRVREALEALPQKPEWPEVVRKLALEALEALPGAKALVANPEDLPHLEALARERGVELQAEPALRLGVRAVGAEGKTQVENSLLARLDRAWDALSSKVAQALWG
Nature of the assay: cryo-EM structure; single particle cryo-EM of the whole V/A-ATPase in TE buffer (20 mM Tris-HCl pH 8.0, 0.1 mM EDTA) with 0.003% LMNG and 100 mM NaCl, no nucleotide added; three rotational states (5.0, 6.7, 7.5 Å), focused V1EGd map of state1 4.7 Å; crystal structures and homology models fitted by MDFF; both purified.

For assay [2], the target named is a-subunit (subunit I) of the V/A-ATPase from Thermus thermophilus (Thermus thermophilus). Described as above.

Results are given in words; binding and its absence hold for the method and conditions named. Binding can be weak; no strength is given.

Consider “G-subunit of the V/A-ATPase from Thermus thermophilus”, for which, in assay [1], the binding result is on record as “binds”.

B1: E-subunit of the V/A-ATPase from Thermus thermophilus (natural protein)
chain: T1 sequence
notes: V/A-type ATPase E-subunit (peripheral stalk), Thermus thermophilus; native subunit in the isolated whole enzyme; Two copies in the enzyme (two EG stalks); also called subunit E; EG stalk (with G)
As to B1, the binding result in assay [2] was “binds”.

The values above are taken from article PMC5758568, “Cryo EM structure of intact rotary H^+-ATPase/synthase from Thermus thermophilus” (Nature Communications, 2018).
